According to PMC7819943, “Rice protein-binding microarrays: a tool to detect cis-acting elements near promoter regions in rice”:
This is one part of the list.

The sequences below were run against T1, OsSMF1 (Oryza sativa, UniProt Q6ZLB0 1-436) (assay: protein-binding microarray (RPBM); PBS, 2% BSA, 51.3 ng/ul salmon testes DNA, 50 uM zinc acetate, 200 nM TF, 25 C, 1 h; high values mean tight binding). Details: protein: recombinant; tags: N-terminal polyhistidine and DsRed monomer fusion (pET32a); chain copies: 2; label: CyDye5-dUTP incorporated in the synthesized complementary strand; 3' TTTTT single-stranded linker to array surface; dsDNA, one strand shown.
T1 sequence: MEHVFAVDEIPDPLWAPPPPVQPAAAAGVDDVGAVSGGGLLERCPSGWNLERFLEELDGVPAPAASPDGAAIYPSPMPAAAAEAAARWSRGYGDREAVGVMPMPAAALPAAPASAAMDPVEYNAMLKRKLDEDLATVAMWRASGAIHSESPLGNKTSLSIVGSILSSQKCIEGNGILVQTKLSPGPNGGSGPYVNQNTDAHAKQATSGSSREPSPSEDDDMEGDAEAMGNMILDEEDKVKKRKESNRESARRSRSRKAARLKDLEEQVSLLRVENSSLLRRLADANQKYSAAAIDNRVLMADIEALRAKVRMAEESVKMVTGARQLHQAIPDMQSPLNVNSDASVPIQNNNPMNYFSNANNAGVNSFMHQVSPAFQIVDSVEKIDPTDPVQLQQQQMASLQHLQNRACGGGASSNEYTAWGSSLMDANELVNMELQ
Method in brief: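 An Axon 4000B scanner gave the binding signal as per-feature fluorescence intensity in arbitrary units. This followed washing of a custom Agilent array that had been incubated for 1 h at 25 °C with 200 nM protein in PBS, 2% BSA, salmon testes DNA and 50 µM zinc acetate. The proteins were transcription factors fused at the N-terminus to polyhistidine and DsRed, expressed in E. coli BL21-CodonPlus and purified on Ni–NTA.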

Q: Which binding signal does the source give for “AGGAGGTGCTTATAGAGGTATGATGTGCGGTGTTTATGTTCGGAGTCACCTAGTGCAG” here?
A: 3670 fluorescence intensity (a.u.)

Q: With “GAACGGAACGCAACGTGCGGAGAGAGAGCGAGAGAGAAGCCGGAGTCACCTAGTGCAG” as the sequence, how does the binding signal read?
A: 30600 fluorescence intensity (a.u.)

Q: How did the binding signal turn out when “TACAACACAGGACAGATGAGAGATGACACGTGTAAAATCTCGGAGTCACCTAGTGCAG” was run?
A: 13200 fluorescence intensity (a.u.)

Q: With “TTCTTCTTTCATAAAACCACATCATCTTACTTTTACATTTCGGAGTCACCTAGTGCAG” as the sequence, how does the binding signal read?
A: 4700 fluorescence intensity (a.u.)

Q: “ACGCCCGGCCGGGCGTGGTCCACTCTTGCGTCGTCACGGCCGGAGTCACCTAGTGCAG” was tested. Which binding signal did it give?
A: 4420 fluorescence intensity (a.u.)

Q: “TTCTTACTGTGGTATTTATTGGTAGTAGAATCAATTTAGACGGAGTCACCTAGTGCAG” was tested. Which binding signal did it give?
A: 3270 fluorescence intensity (a.u.)

Q: With “TCACCCACAACTACCACGTCGCCACCCACAAGCGCGACGTCGGAGTCACCTAGTGCAG” as the sequence, how does the binding signal read?
A: 4120 fluorescence intensity (a.u.)

Q: For “TCCGCGGCACGTGTCTAGTGCCTACGGGGCGTCATCCGGTCGGAGTCACCTAGTGCAG”, which binding signal is on record?
A: 5220 fluorescence intensity (a.u.)

Q: “GAGAGAGATGATGATGACGTGGTCACCCTGACGTGTGGGGCGGAGTCACCTAGTGCAG” was tested. Which binding signal did it give?
A: 13000 fluorescence intensity (a.u.)

Q: Which binding signal does the source give for “CCCGATTGAGATAGGTCATCTGTGACGGGCTATAGTTTGACGGAGTCACCTAGTGCAG” here?
A: 10400 fluorescence intensity (a.u.)

Q: For “CCCGGGGTGAGATGGGCCTTGGCCCATGATGGTGAGTGGGCGGAGTCACCTAGTGCAG”, which binding signal is on record?
A: 3820 fluorescence intensity (a.u.)

Q: With “ACGTTCGAGGAAGCTGCACCATATGAATCAACGCGTTATTCGGAGTCACCTAGTGCAG” as the sequence, how does the binding signal read?
A: 3260 fluorescence intensity (a.u.)

Q: How did the binding signal turn out when “CCTCGCCGACGCTGTATGACGTCGAGTAGCGTGGTGCCTCCGGAGTCACCTAGTGCAG” was run?
A: 4430 fluorescence intensity (a.u.)

Q: Which binding signal does the source give for “TACCCAATGCGACGTGCCAAAACTTTAGACACCTGGATCTCGGAGTCACCTAGTGCAG” here?
A: 3150 fluorescence intensity (a.u.)

Q: With “AGCGAGCACGCAGCAATGGTGGCGTCACCGTGACCTTCCGCGGAGTCACCTAGTGCAG” as the sequence, how does the binding signal read?
A: 12300 fluorescence intensity (a.u.)

Q: “GGCTCGATTCCGTCGCCACCCTGTGACAGCAGCAGCCACCCGGAGTCACCTAGTGCAG” was tested. Which binding signal did it give?
A: 3450 fluorescence intensity (a.u.)

Q: Which binding signal does the source give for “GAGACCTCTCGCCGTCCCGCCACGCGCGCGCGCGAGCGAGCGGAGTCACCTAGTGCAG” here?
A: 5040 fluorescence intensity (a.u.)

Q: Which binding signal does the source give for “ATCCTACTAAACTTATATTAGTCACCATCAAAATAGCTTCCGGAGTCACCTAGTGCAG” here?
A: 3880 fluorescence intensity (a.u.)

Q: With “TGAGGATGCACGCGGCTGAAGATGAGCACAGCGGAGACTTCGGAGTCACCTAGTGCAG” as the sequence, how does the binding signal read?
A: 29500 fluorescence intensity (a.u.)

Q: For “CCTCTCTTTCCAATCATGGGACATGTCACAGAGAATCAATCGGAGTCACCTAGTGCAG”, which binding signal is on record?
A: 3160 fluorescence intensity (a.u.)

Q: “GCAGGGACAGAGTAGATTTTCGATTGACATGTCACCTGTTCGGAGTCACCTAGTGCAG” was tested. Which binding signal did it give?
A: 4610 fluorescence intensity (a.u.)

Q: “GTGGCGCCTCCACCTCAAGATGACGTCAAATAAAATGTATCGGAGTCACCTAGTGCAG” was tested. Which binding signal did it give?
A: 9220 fluorescence intensity (a.u.)

Q: How did the binding signal turn out when “CGACGCGCCCGCATTCCCCACGCTGCTCCCTATTCCCCATCGGAGTCACCTAGTGCAG” was run?
A: 4070 fluorescence intensity (a.u.)

Q: For “TTCCTTGCATAGGCGGCGGCTCGCCACGCTATCCCCTCGCCGGAGTCACCTAGTGCAG”, which binding signal is on record?
A: 6510 fluorescence intensity (a.u.)

Q: How did the binding signal turn out when “CTGCCACGCCGCCGTAACCACCACTCAACTGCCACATACCCGGAGTCACCTAGTGCAG” was run?
A: 3650 fluorescence intensity (a.u.)

Q: Which binding signal does the source give for “GCCCCTTATTTGTTCATGCGTTGCTCCACATCCTCCATAACGGAGTCACCTAGTGCAG” here?
A: 4250 fluorescence intensity (a.u.)

Q: Which binding signal does the source give for “GGAGTATATTATTCTCTATGACTTTGATCATAAAATGAGTCGGAGTCACCTAGTGCAG” here?
A: 3480 fluorescence intensity (a.u.)

Q: For “TGTCCCCGTCCCGTGTGCGACCAATTCGCCGTTCGTTGGGCGGAGTCACCTAGTGCAG”, which binding signal is on record?
A: 3540 fluorescence intensity (a.u.)

Q: “TCTTAAGCGACGGGCGCCTTCGTGACTCCTCATTTGCATCCGGAGTCACCTAGTGCAG” was tested. Which binding signal did it give?
A: 4810 fluorescence intensity (a.u.)

Q: “TGTTGGGCCCACATCATTTTCTCTCACTGACATGTGGGCCCGGAGTCACCTAGTGCAG” was tested. Which binding signal did it give?
A: 3730 fluorescence intensity (a.u.)

Q: With “TTCCAGAATCAGAATAGTGAAGCAACTGACGTGTCAAGTACGGAGTCACCTAGTGCAG” as the sequence, how does the binding signal read?
A: 20800 fluorescence intensity (a.u.)

Q: For “GACAATTATAAAGGGCACATCAGGAAATTTACCTACCGCACGGAGTCACCTAGTGCAG”, which binding signal is on record?
A: 20000 fluorescence intensity (a.u.)

Q: For “GACCGCCACCTCCGCCTCCGCGTGATCACAGTCACGTGGGCGGAGTCACCTAGTGCAG”, which binding signal is on record?
A: 4480 fluorescence intensity (a.u.)

Q: Which binding signal does the source give for “GCTACTAAGGAGTACTACAATATTGCATCATCGTCATCATCGGAGTCACCTAGTGCAG” here?
A: 6340 fluorescence intensity (a.u.)

Q: “TGAATTTCCGGGCGTGACATTACGCCACCATCCCGAACAGCGGAGTCACCTAGTGCAG” was tested. Which binding signal did it give?
A: 3700 fluorescence intensity (a.u.)

Q: How did the binding signal turn out when “TGGGTGATGCCACATTGCCATTGCCACGACGACTTCTTCCCGGAGTCACCTAGTGCAG” was run?
A: 5760 fluorescence intensity (a.u.)

Q: For “ATACTATAAATTTGGATATGCTCTATAGTACTACAAATCTCGGAGTCACCTAGTGCAG”, which binding signal is on record?
A: 29100 fluorescence intensity (a.u.)

Q: “GTAGGATATGATGCACAATTCGCTTCCCAGTCACCTTCCACGGAGTCACCTAGTGCAG” was tested. Which binding signal did it give?
A: 3570 fluorescence intensity (a.u.)

Q: “CTTCTAGTGAGTTGATTGAAGGGATCTAATCCTGGGTCCGCGGAGTCACCTAGTGCAG” was tested. Which binding signal did it give?
A: 3180 fluorescence intensity (a.u.)

Q: With “ATCTTGATATTGACGAAGTCATCACATGCGCATCGTTGCCCGGAGTCACCTAGTGCAG” as the sequence, how does the binding signal read?
A: 3150 fluorescence intensity (a.u.)

Q: How did the binding signal turn out when “CAAGTTGTGACATTGAAAATGAGGGGTATGACTAGACACACGGAGTCACCTAGTGCAG” was run?
A: 6580 fluorescence intensity (a.u.)

Q: With “TGCATCTCAACGATCGACCATCATAACGAGTTCCACGTAGCGGAGTCACCTAGTGCAG” as the sequence, how does the binding signal read?
A: 3560 fluorescence intensity (a.u.)

Q: How did the binding signal turn out when “AAGCCCTCGCGTTTCATCATGTGTGTGGTGAGTCATGGAGCGGAGTCACCTAGTGCAG” was run?
A: 13700 fluorescence intensity (a.u.)

Q: “CCTCGCTGGGGTGCACCGCCGCTGCATCGGCTCCACTCGGCGGAGTCACCTAGTGCAG” was tested. Which binding signal did it give?
A: 3870 fluorescence intensity (a.u.)

Q: With “TTGCACCAGTGCCACTGCCACCTAGCTCACCCTGTCATTTCGGAGTCACCTAGTGCAG” as the sequence, how does the binding signal read?
A: 3390 fluorescence intensity (a.u.)

Q: How did the binding signal turn out when “TGCACGGAATAATCCAGAACGTGTCAGGCCAAAGGGCCCCCGGAGTCACCTAGTGCAG” was run?
A: 3160 fluorescence intensity (a.u.)

Q: With “ATCGATCCAAGCCAAGGTGACTCACCACTCCACTCCACTCCGGAGTCACCTAGTGCAG” as the sequence, how does the binding signal read?
A: 12600 fluorescence intensity (a.u.)

Q: Which binding signal does the source give for “TAGTGCAGATGCAACGGAAGAAGCTCCACCTCAATGGAAGCGGAGTCACCTAGTGCAG” here?
A: 6560 fluorescence intensity (a.u.)

Q: Which binding signal does the source give for “CCCAAACGGAACCGACCTGCCATGCCCATGCTGGCTGCGTCGGAGTCACCTAGTGCAG” here?
A: 3380 fluorescence intensity (a.u.)

Q: “GCCACACCTCCCATTCCTTAGCCAAACACTCGCACTACTCCGGAGTCACCTAGTGCAG” was tested. Which binding signal did it give?
A: 3200 fluorescence intensity (a.u.)

Q: For “AGAAGTATTTCTGCGTCATTGTTGGAAATTATATTTCTAGCGGAGTCACCTAGTGCAG”, which binding signal is on record?
A: 3650 fluorescence intensity (a.u.)

Q: Which binding signal does the source give for “ATTTTACTCTTAGCAATCAATTTAGCATATTTATCTATTCCGGAGTCACCTAGTGCAG” here?
A: 3360 fluorescence intensity (a.u.)

Q: “TCAATAGAAAATAAACTGATTCATGTTAAAACCTTCACACCGGAGTCACCTAGTGCAG” was tested. Which binding signal did it give?
A: 46600 fluorescence intensity (a.u.)

Q: Which binding signal does the source give for “TAGTATATAAAGCCTCGCACGGGACCAATCTCCACTTCCGCGGAGTCACCTAGTGCAG” here?
A: 3200 fluorescence intensity (a.u.)
